Results are given in words; binding and its absence hold for the method and conditions named. In cells and extracts the contact can be indirect. Some entries that bind do so weakly or less than the wild type. Tags and fused reporters may be left off the sequences shown.
What was measured:
[1] = molecular target: T1, FLAG-tagged CRTC2 (CREB-regulated transcriptional coactivator 2) (UniProt Q53ET0); assay: co-IP; 293T cells transfected; lysis in 50 mM HEPES pH 8.0, 150 mM NaCl, 0.5% Triton-X 100; anti-FLAG affinity gel for 6 h, rinsed four times in lysis buffer; western blotting
T1 sequence: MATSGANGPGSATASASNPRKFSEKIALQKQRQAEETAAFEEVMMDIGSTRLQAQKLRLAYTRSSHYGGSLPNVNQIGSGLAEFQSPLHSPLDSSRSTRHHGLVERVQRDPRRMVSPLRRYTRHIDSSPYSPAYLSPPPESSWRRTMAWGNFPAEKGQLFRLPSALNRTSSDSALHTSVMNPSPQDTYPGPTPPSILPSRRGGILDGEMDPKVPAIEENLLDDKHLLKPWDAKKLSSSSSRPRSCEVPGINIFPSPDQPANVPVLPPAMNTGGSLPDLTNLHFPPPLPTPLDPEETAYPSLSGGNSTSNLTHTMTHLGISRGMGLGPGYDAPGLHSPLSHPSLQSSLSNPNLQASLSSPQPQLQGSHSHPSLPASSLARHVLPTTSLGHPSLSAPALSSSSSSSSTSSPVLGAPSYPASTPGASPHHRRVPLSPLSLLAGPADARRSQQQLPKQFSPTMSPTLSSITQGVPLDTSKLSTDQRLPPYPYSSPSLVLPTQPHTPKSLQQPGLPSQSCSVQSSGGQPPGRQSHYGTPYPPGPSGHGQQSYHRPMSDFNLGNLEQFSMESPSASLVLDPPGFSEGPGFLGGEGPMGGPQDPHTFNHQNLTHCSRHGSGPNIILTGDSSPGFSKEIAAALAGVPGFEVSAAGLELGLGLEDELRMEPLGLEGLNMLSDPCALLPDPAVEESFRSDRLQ

Protein sequences, listed by entry. Tags and fused reporters are not part of them.
UniProt P42227: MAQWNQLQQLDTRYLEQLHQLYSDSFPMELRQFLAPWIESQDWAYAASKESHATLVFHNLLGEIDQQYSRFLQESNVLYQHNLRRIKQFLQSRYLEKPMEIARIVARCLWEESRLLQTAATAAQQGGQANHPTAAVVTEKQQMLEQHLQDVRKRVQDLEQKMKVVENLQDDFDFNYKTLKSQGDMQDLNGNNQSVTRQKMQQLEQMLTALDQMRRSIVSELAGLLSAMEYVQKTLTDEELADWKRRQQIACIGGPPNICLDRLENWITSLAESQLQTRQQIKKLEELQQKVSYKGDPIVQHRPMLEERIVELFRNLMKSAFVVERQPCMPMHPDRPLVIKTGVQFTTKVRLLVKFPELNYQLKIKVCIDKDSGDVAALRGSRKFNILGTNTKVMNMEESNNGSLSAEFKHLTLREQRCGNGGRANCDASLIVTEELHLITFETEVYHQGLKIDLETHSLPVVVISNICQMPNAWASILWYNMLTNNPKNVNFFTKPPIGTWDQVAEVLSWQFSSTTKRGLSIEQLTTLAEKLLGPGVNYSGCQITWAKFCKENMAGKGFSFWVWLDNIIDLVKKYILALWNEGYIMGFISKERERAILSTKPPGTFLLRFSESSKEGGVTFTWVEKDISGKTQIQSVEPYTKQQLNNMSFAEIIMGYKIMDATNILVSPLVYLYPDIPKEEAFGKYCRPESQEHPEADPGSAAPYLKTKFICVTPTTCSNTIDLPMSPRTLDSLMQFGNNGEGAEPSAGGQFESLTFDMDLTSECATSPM

[2] = molecular target: T2, FLAG-tagged CRTC3 (CREB-regulated transcriptional coactivator 3) (UniProt Q6UUV7); assay: as above
T2 sequence: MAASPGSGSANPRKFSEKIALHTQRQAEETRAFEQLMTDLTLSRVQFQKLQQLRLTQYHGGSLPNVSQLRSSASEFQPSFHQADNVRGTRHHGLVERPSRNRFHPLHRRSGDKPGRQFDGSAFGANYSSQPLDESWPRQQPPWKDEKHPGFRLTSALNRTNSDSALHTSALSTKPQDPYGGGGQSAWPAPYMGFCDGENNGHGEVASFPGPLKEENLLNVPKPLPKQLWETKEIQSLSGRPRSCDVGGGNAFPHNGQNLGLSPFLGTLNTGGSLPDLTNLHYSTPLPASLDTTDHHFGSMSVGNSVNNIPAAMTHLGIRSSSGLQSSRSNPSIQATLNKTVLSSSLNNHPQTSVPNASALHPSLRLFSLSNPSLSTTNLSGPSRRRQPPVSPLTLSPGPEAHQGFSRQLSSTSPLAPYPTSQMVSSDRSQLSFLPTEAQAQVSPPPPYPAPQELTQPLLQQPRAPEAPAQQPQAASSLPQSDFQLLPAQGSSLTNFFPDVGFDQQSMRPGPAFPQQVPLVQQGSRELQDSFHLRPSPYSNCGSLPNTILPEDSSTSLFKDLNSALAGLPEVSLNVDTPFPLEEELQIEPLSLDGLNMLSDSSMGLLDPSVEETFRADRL

“STAT3 (signal transducer and activator of transcription 3) (from UniProt P42227 1-770)” was tested, and the binding [1] was “binds” and the binding [2] was “binds”.

Reference: article PMC5108339
